Results published in PubChem BioAssay AID463183 (Sanford-Burnham Center for Chemical Genomics, 2010).
This is one part of the list. Shown are side measurements of this screen, not its main read-out; they come without a call. Compounds called inactive in the main read-out are mostly missing here.

experiment: blockers of oleate-driven lipid droplets in liver cells – imaging, AML12 mouse hepatocytes, single concentration, high-content, confirmation (AID 463183); conditions: BODIPY lipid droplet imaging, measured here: cell count, cytotoxicity, at 5.2 µM, droplets induced with 100 µM oleic acid;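 also: cells counted after overnight compound exposure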

Structure (SMILES) | cell count [cells]
Nc1ccc2nc(Cc3ccccc3)[nH]c2c1 | 1510
COc1ccc(CNC(=O)CN2C(=O)NC(C)(c3cccc4ccccc34)C2=O)cc1OC (stereo not given) | 1650
Cc1nc(NC(=O)C2CC2)sc1C(=O)N(C)C | 1650
CCn1cc(C(=O)N(C)c2ccc(OC)cc2)c2cc(OC)c(OC)cc2c1=O | 1620
Nc1cc(Nc2ccccc2)c2nonc2c1[N+](=O)[O-] | 1540
C=CCN1C(=O)/C(=C\C=C2\N(C)c3ccccc3C2(C)C)SC1=S | 1670
COc1ccc2nc(N=Nc3ccc(O)c4ccccc34)sc2c1 | 1300
O=c1[nH]c(=O)n(Cc2ccccc2)c2nc(-c3ccc(Oc4ccc(F)cc4)c([N+](=O)[O-])c3)n(CCO)c12 | 1560
CCc1ccccc1NC(=O)C1=CC(c2cccs2)=NS(=O)(=O)N1C | 1680
COc1ccc(-c2cc(C(F)(F)F)nc(SCCC(=O)NCc3ccccc3)n2)cc1 | 1600
Cc1cc(C)cc(NC(=O)CSc2nc3ccccc3nc2N2CCCC2)c1 | 1590
Cc1ccc(NC(=O)CSc2nc3ccccc3nc2N2CCCC2)cc1 | 1540
O=C(NCc1ccccc1)C(c1ccccc1F)N(C(=O)c1csnn1)C1CCCC1 (stereo not given) | 1610
COc1ccc(C)cc1NC(=O)CCC(=O)Nc1ccc2nc(N3CCN(C)CC3)cc(C)c2c1 | 1580
O=C(c1ccc(S(=O)(=O)Nc2cccc(C(F)(F)F)c2)cc1)N1CCOCC1 | 1490
CCOc1ccc(C(=O)OCC(=O)Nc2nc(OC)cc(OC)n2)cc1OCC | 1650
Cc1cc2c(cc1S(=O)(=O)Nc1cccc(C)c1C)n(C)c(=O)c(=O)n2C | 1640
CCCCNC(=O)c1ccc2c(c1)N(C)C(=O)c1ccccc1S2 | 1600
C/C(=N\Nc1ccc(S(=O)(=O)Nc2ccc(Cl)cc2)cc1[N+](=O)[O-])c1ccc(N2CCOCC2)cc1 | 1560
Cc1cccc(NC(=O)CSc2nnc(C)c(=O)n2N)c1 | 1570

Structure (SMILES) | cell count [cells]
CC1(OC(=O)CCc2ccccc2)C(=O)C=C2C=C(c3ccc(C#N)cc3)N(CCc3c[nH]c4ccccc34)C=C2C1=O (stereo not given) | 1510
COc1ccc(/C=C\C(=O)NCc2ccc3[nH]c(C)cc3c2)cc1OC | 1610
CCOc1ccc(NC(=O)CN(C)C(=O)c2ccc(C)c(S(=O)(=O)N3CCCCC3)c2)cc1OCC | 1640
Cc1ccc(C(=O)NCCNC(=O)c2ccc(C)nc2)cc1 | 1630
CC(=O)C1=C(C)NC(SCSc2ccccc2)=C(C#N)C1c1cccnc1 (stereo not given) | 1630
CCc1ccccc1NC(=O)c1cccc(NC(=O)/C=C/c2ccco2)c1 | 1370
Cc1cc(O)c(C)c(O)c1/C=N/NC(=O)c1cccnc1 | 1640
CC1CCN(C(=O)c2ccc3c(c2NCCO)C(=O)c2ccccc2C3=O)CC1 | 1650
Cc1ccccc1C(=O)NC1CCN(Cc2nnnn2C2CCCC2)CC1 | 1580
CCCOC(=O)c1ccc(NC(=O)CCOc2ccccc2)cc1 | 1430
COc1ccc(C2(c3ccc(OC)cc3)NC(=O)N(CC(=O)Nc3ccccc3C)C2=O)cc1 | 1590
Cc1cc(C)cc(NC(=O)CCC(=O)Nc2cc(C)on2)c1 | 1660
COc1ccc(-c2nc(NC(=O)Cn3ccc(C(F)(F)F)n3)sc2C)cc1 | 1550
CCCc1cc(N2CCOCC2)n2nc(C)c(-c3ccccc3)c2n1 | 1470
CCOc1ccc(NC(=O)CCSc2nc3c(c(CC)c2C#N)C(=O)CC(C)(C)C3)cc1 | 1530
COc1ccc2c(c1)O[C@@H](c1cccc(C(F)(F)F)c1)[C@H](OC(=O)NCCc1ccc(OC)c(OC)c1)C2=O | 1570
COc1ccc(CC(=O)OCC(=O)N2N=C(c3ccccc3)CC2c2ccc(OC)cc2)cc1 (stereo not given) | 1610
CCOC(=O)c1cc(-c2ccc(C)cc2)nc2nc(SC)[nH]c(=O)c12 | 1600
CCCCOc1ccc(-c2ncc([N+](=O)[O-])cn2)cc1 | 1560
C=CCC(=O)N1CCC(n2nccc2NC(=O)CCOc2ccccc2)CC1 | 1660

As entered above:
cell count [cells] with COc1ccc(-c2cc(C(F)(F)F)nc(SCCC(=O)NCc3ccccc3)n2)cc1 is entered as 1600
cell count [cells] with Cc1ccc(C(=O)NCCNC(=O)c2ccc(C)nc2)cc1 is entered as 1630
